# Results reported in the supplement of paper PMC8728848.
# This is one part of the list.
# Tests used:
# Assay in all cases: glycan array binding signal (z-score within array); higher = stronger binding
# Conditions in all cases: glycan notation: IUPAC condensed, linker removed
# [1] = target: GalNAc(a1-3)GalNAc(b1-3)Gal(a1-4)Gal(b1-4)GlcNAc
# Method in brief: (§1)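 The Consortium for Functional Glycomics database supplied 3228 glycan arrays, of which those lacking an available protein sequence were dropped. The binding signal, a within-array Z-score, was averaged across arrays of the same protein sequence and across linkers. Negative scores can be read as non-binding.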
# GalNAc(b1-3)Gal = target: GalNAc(b1-3)Gal
# Method in brief: as §1
# [2] = target: GalNAc(b1-3)Gal(a1-4)Gal(b1-4)GlcNAc
# Method in brief: as §1
# [3] = target: GalNAc(b1-3)Gal(a1-4)Gal(b1-4)GlcNAc(b1-3)Gal(b1-4)Glc
# Method in brief: as §1
# [4] = target: GalNAc(b1-3)Gal(a1-6)Gal(b1-4)Glc
# Method in brief: as §1
# GalNAc(b1-3)GalNAc = target: GalNAc(b1-3)GalNAc
# Method in brief: as §1
# GalNAc(b1-4)Gal(b1-4)Glc = target: GalNAc(b1-4)Gal(b1-4)Glc
# Method in brief: as §1
# GalNAc(b1-4)GlcNAc = target: GalNAc(b1-4)GlcNAc
# Method in brief: as §1
# [5] = target: GalNAc(b1-4)GlcNAc(b1-2)Man(a1-3)[GalNAc(b1-4)GlcNAc(b1-2)Man(a1-6)]Man(b1-4)GlcNAc(b1-4)GlcNAc
# Method in brief: as §1
# GalNAc(b1-4)GlcNAc6S = target: GalNAc(b1-4)GlcNAc6S
# Method in brief: as §1
# GalNAc(b1-6)GalNAc = target: GalNAc(b1-6)GalNAc
# Method in brief: as §1
# GalNAc3S(b1-4)GlcNAc = target: GalNAc3S(b1-4)GlcNAc
# Method in brief: as §1
# GalNAc3S(b1-4)GlcNAc3S = target: GalNAc3S(b1-4)GlcNAc3S
# Method in brief: as §1
# GalNAc4S6S(b1-4)GlcNAc = target: GalNAc4S6S(b1-4)GlcNAc
# Method in brief: as §1
# GalNAc6S(b1-4)GlcNAc = target: GalNAc6S(b1-4)GlcNAc
# Method in brief: as §1
# Glc(a1-4)Glc = target: Glc(a1-4)Glc
# Method in brief: as §1
# [6] = target: Glc(a1-4)Glc(a1-4)Glc(a1-4)Glc
# Method in brief: as §1
# Glc(a1-6)Glc(a1-6)Glc = target: Glc(a1-6)Glc(a1-6)Glc
# Method in brief: as §1
# [7] = target: Glc(a1-6)Glc(a1-6)Glc(a1-6)Glc
# Method in brief: as §1
# Glc(b1-4)Glc = target: Glc(b1-4)Glc
# Method in brief: as §1
# Glc(b1-6)Glc = target: Glc(b1-6)Glc
# Method in brief: as §1
# GlcA(b1-3)Gal = target: GlcA(b1-3)Gal
# Method in brief: as §1
# GlcA(b1-3)GlcNAc = target: GlcA(b1-3)GlcNAc
# Method in brief: as §1
# GlcA(b1-6)Gal = target: GlcA(b1-6)Gal
# Method in brief: as §1
# [8] = target: GlcNAc(a1-3)Gal(b1-4)GlcNAc
# Method in brief: as §1
# [9] = target: GlcNAc(a1-4)Gal(b1-3)GlcNAc
# Method in brief: as §1
# [10] = target: GlcNAc(a1-4)Gal(b1-4)GalNAc
# Method in brief: as §1
# [11] = target: GlcNAc(a1-4)Gal(b1-4)GlcNAc
# Method in brief: as §1
# [12] = target: GlcNAc(a1-4)Gal(b1-4)GlcNAc(b1-3)Gal(b1-4)Glc
# Method in brief: as §1
# [13] = target: GlcNAc(a1-4)Gal(b1-4)GlcNAc(b1-3)Gal(b1-4)GlcNAc
# Method in brief: as §1
# [14] = target: GlcNAc(a1-4)Gal(b1-4)GlcNAc(b1-3)Gal(b1-4)GlcNAc(b1-3)Gal(b1-4)GlcNAc
# Method in brief: as §1
# [15] = target: GlcNAc(a1-4)Gal(b1-4)GlcNAc(b1-3)Gal(b1-4)[Fuc(a1-3)]GlcNAc(b1-3)Gal(b1-4)[Fuc(a1-3)]GlcNAc
# Method in brief: as §1
# [16] = target: GlcNAc(a1-6)Gal(b1-4)GlcNAc
# Method in brief: as §1
# [17] = target: GlcNAc(b1-2)Gal(b1-3)GalNAc
# Method in brief: as §1
# [18] = target: GlcNAc(b1-2)Man(a1-3)[GlcNAc(b1-2)Man(a1-6)]Man(b1-4)GlcNAc(b1-4)GlcNAc
# Method in brief: as §1
# [19] = target: GlcNAc(b1-2)Man(a1-3)[GlcNAc(b1-2)Man(a1-6)]Man(b1-4)GlcNAc(b1-4)[Fuc(a1-6)]GlcNAc
# Method in brief: as §1
# [20] = target: GlcNAc(b1-2)Man(a1-3)[GlcNAc(b1-4)][GlcNAc(b1-2)Man(a1-6)]Man(b1-4)GlcNAc(b1-4)GlcNAc
# Method in brief: as §1
# [21] = target: GlcNAc(b1-2)[GlcNAc(b1-4)]Man(a1-3)[GlcNAc(b1-2)Man(a1-6)]Man(b1-4)GlcNAc(b1-4)GlcNAc
# Method in brief: as §1
# [22] = target: GlcNAc(b1-2)[GlcNAc(b1-4)]Man(a1-3)[GlcNAc(b1-4)][GlcNAc(b1-2)Man(a1-6)]Man(b1-4)GlcNAc(b1-4)GlcNAc
# Method in brief: as §1
# [23] = target: GlcNAc(b1-2)[GlcNAc(b1-4)]Man(a1-3)[GlcNAc(b1-4)][GlcNAc(b1-2)[GlcNAc(b1-6)]Man(a1-6)]Man(b1-4)GlcNAc(b1-4)GlcNAc
# Method in brief: as §1
# [24] = target: GlcNAc(b1-2)[GlcNAc(b1-4)]Man(a1-3)[GlcNAc(b1-4)][GlcNAc(b1-2)[GlcNAc(b1-6)]Man(a1-6)]Man(b1-4)GlcNAc(b1-4)[Fuc(a1-6)]GlcNAc
# Method in brief: as §1
# [25] = target: GlcNAc(b1-2)[GlcNAc(b1-6)]Man(a1-6)[GlcNAc(b1-2)Man(a1-3)]Man(b1-4)GlcNAc(b1-4)GlcNAc
# Method in brief: as §1
# [26] = target: GlcNAc(b1-2)[GlcNAc(b1-6)]Man(a1-6)[GlcNAc(b1-2)Man(a1-3)]Man(b1-4)GlcNAc(b1-4)[Fuc(a1-6)]GlcNAc
# Method in brief: as §1
# [27] = target: GlcNAc(b1-2)[GlcNAc(b1-6)]Man(a1-6)[GlcNAc(b1-2)Man(a1-3)][GlcNAc(b1-4)]Man(b1-4)GlcNAc(b1-4)GlcNAc
# Method in brief: as §1
# GlcNAc(b1-3)Gal = target: GlcNAc(b1-3)Gal
# Method in brief: as §1
binder,measurement,setting,value
Intelectin-1a (Mus musculus) (protein) AEWSHPQFEKAEENLDTNRWGNSFFSSLPRSCKEIKQEHTKAQDGLYFLRTKNGVIYQTFCDMTTAGGGWTLVASVHENNMRGKCTVGDRWSSQQGNRADYPEGDGNWANYNTFGSAEAATSDDYKNPGYFDIQAENLGIWHVPNKSPLHNWRKSSLLRYRTFTGFLQHLGHNLFGLYKKYPVKYGEGKCWTDNGPALPVVYDFGDARKTASYYSPSGQREFTAGYVQFRVFNNERAASALCAGVRVTGCNTEHHCIGGGGFFPEGNPVQCGDFASFDWDGYGTHNGYSSSRKITEAAVLLFYR,glycan array binding signal (z-score),[1],-1.22
same,glycan array binding signal (z-score),GalNAc(b1-3)Gal,-0.938
same,glycan array binding signal (z-score),[2],-0.267
same,glycan array binding signal (z-score),[3],0.026
same,glycan array binding signal (z-score),[4],0.658
same,glycan array binding signal (z-score),GalNAc(b1-3)GalNAc,0.779
same,glycan array binding signal (z-score),GalNAc(b1-4)Gal(b1-4)Glc,-0.303
same,glycan array binding signal (z-score),GalNAc(b1-4)GlcNAc,0.361
same,glycan array binding signal (z-score),[5],0.434
same,glycan array binding signal (z-score),GalNAc(b1-4)GlcNAc6S,1.21
same,glycan array binding signal (z-score),GalNAc(b1-6)GalNAc,-0.946
same,glycan array binding signal (z-score),GalNAc3S(b1-4)GlcNAc,0.183
same,glycan array binding signal (z-score),GalNAc3S(b1-4)GlcNAc3S,-0.587
same,glycan array binding signal (z-score),GalNAc4S6S(b1-4)GlcNAc,0.122
same,glycan array binding signal (z-score),GalNAc6S(b1-4)GlcNAc,0.284
same,glycan array binding signal (z-score),Glc(a1-4)Glc,-0.363
same,glycan array binding signal (z-score),[6],-0.365
same,glycan array binding signal (z-score),Glc(a1-6)Glc(a1-6)Glc,-0.027
same,glycan array binding signal (z-score),[7],-0.709
same,glycan array binding signal (z-score),Glc(b1-4)Glc,2.2
same,glycan array binding signal (z-score),Glc(b1-6)Glc,-0.107
same,glycan array binding signal (z-score),GlcA(b1-3)Gal,0.662
same,glycan array binding signal (z-score),GlcA(b1-3)GlcNAc,-0.766
same,glycan array binding signal (z-score),GlcA(b1-6)Gal,0.449
same,glycan array binding signal (z-score),[8],-0.597
same,glycan array binding signal (z-score),[9],0.388
same,glycan array binding signal (z-score),[10],0.731
same,glycan array binding signal (z-score),[11],0.718
same,glycan array binding signal (z-score),[12],-0.164
same,glycan array binding signal (z-score),[13],-0.503
same,glycan array binding signal (z-score),[14],1.47
same,glycan array binding signal (z-score),[15],5.84
same,glycan array binding signal (z-score),[16],-0.329
same,glycan array binding signal (z-score),[17],1.57
same,glycan array binding signal (z-score),[18],0.445
same,glycan array binding signal (z-score),[19],2.36
same,glycan array binding signal (z-score),[20],-0.689
same,glycan array binding signal (z-score),[21],-1.01
same,glycan array binding signal (z-score),[22],-0.176
same,glycan array binding signal (z-score),[23],-0.488
same,glycan array binding signal (z-score),[24],-0.031
same,glycan array binding signal (z-score),[25],-0.259
same,glycan array binding signal (z-score),[26],0.249
same,glycan array binding signal (z-score),[27],0.239
same,glycan array binding signal (z-score),GlcNAc(b1-3)Gal,-1.15
